This test addresses T1, Smg7 (mouse (endogenous in mouse ESCs)) (UniProt Q5RJH6).
T1 sequence: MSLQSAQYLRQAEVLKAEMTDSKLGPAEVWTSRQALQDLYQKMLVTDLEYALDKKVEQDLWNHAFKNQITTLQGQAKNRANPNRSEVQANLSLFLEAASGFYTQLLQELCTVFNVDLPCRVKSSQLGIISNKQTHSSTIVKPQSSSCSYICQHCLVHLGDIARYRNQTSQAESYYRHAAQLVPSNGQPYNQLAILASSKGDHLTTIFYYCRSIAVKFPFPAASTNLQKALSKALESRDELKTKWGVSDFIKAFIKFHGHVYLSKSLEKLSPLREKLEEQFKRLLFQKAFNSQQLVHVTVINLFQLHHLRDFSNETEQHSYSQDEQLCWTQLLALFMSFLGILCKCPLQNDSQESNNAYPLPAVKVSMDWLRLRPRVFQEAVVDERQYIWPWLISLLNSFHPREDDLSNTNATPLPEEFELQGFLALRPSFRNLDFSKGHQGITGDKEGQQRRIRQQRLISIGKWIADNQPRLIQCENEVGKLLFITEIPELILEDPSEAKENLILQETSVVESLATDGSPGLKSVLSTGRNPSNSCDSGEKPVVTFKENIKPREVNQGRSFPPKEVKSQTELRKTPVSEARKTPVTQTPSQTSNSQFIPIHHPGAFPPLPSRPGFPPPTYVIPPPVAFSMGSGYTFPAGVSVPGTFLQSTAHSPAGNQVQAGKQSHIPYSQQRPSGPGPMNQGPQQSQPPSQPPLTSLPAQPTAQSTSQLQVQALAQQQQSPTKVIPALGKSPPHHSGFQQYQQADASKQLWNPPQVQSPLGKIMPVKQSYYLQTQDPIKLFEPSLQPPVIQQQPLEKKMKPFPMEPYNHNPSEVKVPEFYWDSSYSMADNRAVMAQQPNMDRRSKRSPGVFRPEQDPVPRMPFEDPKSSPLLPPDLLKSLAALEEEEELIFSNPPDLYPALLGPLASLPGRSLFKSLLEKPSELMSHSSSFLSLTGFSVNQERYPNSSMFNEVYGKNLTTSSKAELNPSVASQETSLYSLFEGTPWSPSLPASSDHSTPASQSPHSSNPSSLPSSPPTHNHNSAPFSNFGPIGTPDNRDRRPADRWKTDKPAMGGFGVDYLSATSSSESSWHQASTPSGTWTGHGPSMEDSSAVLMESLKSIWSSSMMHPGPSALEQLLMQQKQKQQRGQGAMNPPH
In words: co-IP.

Protein sequences, listed by entry. Tags and fused reporters are not part of them.
UniProt Q9EPU0: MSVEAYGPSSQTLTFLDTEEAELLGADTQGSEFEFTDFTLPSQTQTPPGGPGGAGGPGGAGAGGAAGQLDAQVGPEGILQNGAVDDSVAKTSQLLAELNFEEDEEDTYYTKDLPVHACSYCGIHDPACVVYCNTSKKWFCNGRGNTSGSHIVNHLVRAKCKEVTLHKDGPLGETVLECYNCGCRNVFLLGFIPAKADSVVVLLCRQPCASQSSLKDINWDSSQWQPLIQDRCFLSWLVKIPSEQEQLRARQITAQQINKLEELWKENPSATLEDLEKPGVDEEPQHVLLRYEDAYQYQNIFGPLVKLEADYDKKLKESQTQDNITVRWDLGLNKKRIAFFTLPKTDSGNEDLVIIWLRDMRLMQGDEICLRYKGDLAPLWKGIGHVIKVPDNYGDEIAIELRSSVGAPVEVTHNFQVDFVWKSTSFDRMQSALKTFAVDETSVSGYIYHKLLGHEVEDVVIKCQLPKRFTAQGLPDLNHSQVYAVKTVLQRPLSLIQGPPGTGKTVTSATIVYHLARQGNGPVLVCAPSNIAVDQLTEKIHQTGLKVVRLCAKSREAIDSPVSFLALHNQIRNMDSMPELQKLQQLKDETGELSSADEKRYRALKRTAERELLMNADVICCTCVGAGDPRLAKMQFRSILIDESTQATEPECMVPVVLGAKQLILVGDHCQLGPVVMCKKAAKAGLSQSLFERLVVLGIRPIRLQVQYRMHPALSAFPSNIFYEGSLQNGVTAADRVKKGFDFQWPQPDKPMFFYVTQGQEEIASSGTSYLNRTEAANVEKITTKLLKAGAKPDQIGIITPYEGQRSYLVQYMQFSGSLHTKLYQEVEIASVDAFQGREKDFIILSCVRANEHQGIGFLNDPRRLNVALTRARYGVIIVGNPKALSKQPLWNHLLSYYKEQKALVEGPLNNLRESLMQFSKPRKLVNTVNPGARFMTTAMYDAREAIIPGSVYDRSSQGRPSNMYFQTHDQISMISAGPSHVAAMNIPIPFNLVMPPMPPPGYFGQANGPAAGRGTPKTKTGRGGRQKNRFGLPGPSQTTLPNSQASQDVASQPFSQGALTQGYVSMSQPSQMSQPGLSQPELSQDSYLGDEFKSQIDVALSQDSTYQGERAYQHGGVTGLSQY

Our source for the binding values is publication doi:10.1101/2020.07.07.180133.

These are yes or no findings as the source states them, for the method shown. Binding seen in cells or lysates may run through a third protein. Some entries that bind do so weakly or less than the wild type.

Take “phosphorylated Upf1 (from UniProt Q9EPU0 1-1124)”: the binding result was “binds”.

B1: Smg5 (protein, UniProt Q6ZPY2 1-1017)
chain: MSQGPPPGESSEPEAKVLHTKRLYRAVVEAVHRLDLILCNKAAYQEVFKPENVSLRNKLRELCVKLMFLHPVDYGRKAEELLWRKVYYEVIQLIKTNKKHIHSRSTLECAYRTHLVAGIGFYQHLLLYIQSHYQLELQCCIDWTHVTDPLMGFKKPVSASGKEMDWAQMACHRCLVYLGDLSRYQNELAGVDTELLAERFYYQALSVAPQIGMPFNQLGTLAGSKYYNVEAMYCYLRCIQSEVSFEGAYGNLKRLYDKAAKMYHQLKKSETRKLSPSKKRCKDIKRLLVNFMYLQSLLQPKSSSVDSELTSLCQSVLEDFNLCLFYLPSSPNLGLTNEDEEECESGYAFLPDLLIFQMAIICLMGVHSLKRAGSKHYSAAIAFTLALFSHLINHVNIRLQAELEEGENPVSAFQSDGTDEPESKEALEKEEPEPEPPTVVPQADEGRKSRKHSRLSCLRRRRRHHPPKAGDDSDLSEGFESDSSHDSAQASDGSDSGSDKSLEGRGTAFDAETDSEMNSQESRSDLEDMEDEEGTRSPAQEPPQARSEVPDSLNGPLGPSEASIASNLQAMSTQMFQTKRCFRLAPTFSNLLLQPTTEPNSVASHRPCVNGDMDKPLEPASEDGSESEGSESSNRSCRNERSLQEKLQALMAEGLLPAVKVFLDWLRTNPDLIIVCAQSSQSLWNRLSVLLNLLPASAELQDSGLALCSEVQGLLEGCELPDLPASLLLPEDMALRNLPPLRAAHRRFNFDADRPLLSALEESVVRICCIRSFGHFVARLQGSILQFNPEVGIFVSIAQSEQESLLQQAQAQFRMAEEEARRNRLMRDMAQLRLQLEVSQLEGSLQQPKAQSAMSPYLIPDTQALCYHLPLIRQLATSGRFIIIIPRTVIDGLDLLKKEQPGARDGIRYLEAEFKKGNRYIRCQKEVGKSFERHKLKRQDADAWTLYKILDSCRQLTLAQGAGEEDPSGMVTIITGLHLDSPSALSGPMQAALQAAAHASVDVKNVLDFYRQWKEIG
As for B1, the binding result was “binds”.
